Measured values: patent publication US6750008B1, “Methods and compositions for inhibition of membrane fusion-associated events, including HIV transmission” (priority 1999, dated 2004)
At least one structure is not confirmed: it was looked up by name or label, or the drawing left a doubt.

System: CEM cells
Experiment: Cell proliferation and toxicity assay
Type: cell-based
Description: Cell proliferation and toxicity assay: Approximately 3.8×10^5 CEM cells for each peptide concentration were incubated for 3 days at 37° C. in T25 flasks. Peptides tested were DP178 (SEQ ID:1) and DP-116 (SEQ ID:9), as described in FIG. 1. Peptides were synthesized as described, above, in Section 6.1. The concentrations of each peptide used were 0, 2.5, 10, and 40 μg/ml. Cell counts were taken at incubation times of 0, 24, 48, and 72 hours.

Ac-LQARILAVERYLKDQQQ-NH2 [DP-116]
% Viability (2.5 μg/ml, 0 hours): 98%
% Viability (2.5 μg/ml, 24 hours): 96%
% Viability (2.5 μg/ml, 48 hours): 98%
% Viability (2.5 μg/ml, 72 hours): 99%
% Viability (10 μg/ml, 0 hours): 98%
% Viability (10 μg/ml, 24 hours): 95%
% Viability (10 μg/ml, 48 hours): 93%
% Viability (10 μg/ml, 72 hours): 98%
% Viability (40 μg/ml, 0 hours): 98%
% Viability (40 μg/ml, 24 hours): 95%
% Viability (40 μg/ml, 48 hours): 98%
% Viability (40 μg/ml, 72 hours): 97%
